Numbering of substitutions follows the chain as printed. For some of these results: A weaker result is weaker than the reference pair of the same experiment. Tags and fusion partners may be left off the protein sequences shown. For some of these results: The exact form of at least one protein or probe is not confirmed. For some of these results: At least one verdict rests on a figure or table, not on a statement of the authors.
Legend:
[1] = molecular target: T1, Sfc1-DBD R269A/K294A (Schizosaccharomyces pombe) (UniProt O14229); experiment: EMSA; conditions: Buffer D: 20 mM Tris-HCl pH 7.5, 200 mM KCl, 2 mM MgCl2, 10 mM DTT, 25 C (EMSA and nitrocellulose filter binding); recombinant protein; residues 186-396; protein details: N-terminal His-tag, TEV-cleaved; label: 32P
T1 sequence (looked up): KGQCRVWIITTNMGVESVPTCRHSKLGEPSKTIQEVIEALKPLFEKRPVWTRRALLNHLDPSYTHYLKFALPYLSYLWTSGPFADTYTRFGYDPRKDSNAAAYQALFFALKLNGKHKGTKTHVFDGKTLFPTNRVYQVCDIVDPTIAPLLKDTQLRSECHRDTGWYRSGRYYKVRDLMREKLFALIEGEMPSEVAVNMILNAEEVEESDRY

[2] = molecular target: T2, Sfc1-DBD R237A/R238A (Schizosaccharomyces pombe) (UniProt O14229); experiment: EMSA; conditions: Buffer D: 20 mM Tris-HCl pH 7.5, 200 mM KCl, 2 mM MgCl2, 10 mM DTT, 25 C (EMSA and nitrocellulose filter binding); recombinant protein; residues 186-396; protein details: N-terminal His-tag, TEV-cleaved; label: 32P
T2 sequence (looked up): T1 sequence (looked up) with R52A, R53A, A84R, A109K

[3] = molecular target: T2, Sfc1-DBD R237A/R238A (Schizosaccharomyces pombe); experiment: filter binding; conditions: Buffer D: 20 mM Tris-HCl pH 7.5, 200 mM KCl, 2 mM MgCl2, 10 mM DTT, 25 C (EMSA and nitrocellulose filter binding); recombinant protein; residues 186-396; protein details: N-terminal His-tag, TEV-cleaved; label: 32P
[4] = molecular target: T3, Sfc1 111-396 (Schizosaccharomyces pombe) (UniProt O14229); experiment: filter binding; conditions: Buffer D: 20 mM Tris-HCl pH 7.5, 200 mM KCl, 2 mM MgCl2, 10 mM DTT, 25 C (EMSA and nitrocellulose filter binding); recombinant protein; residues 111-396; protein details: N-terminal His-tag, TEV-cleaved; label: 32P
T3 sequence (looked up): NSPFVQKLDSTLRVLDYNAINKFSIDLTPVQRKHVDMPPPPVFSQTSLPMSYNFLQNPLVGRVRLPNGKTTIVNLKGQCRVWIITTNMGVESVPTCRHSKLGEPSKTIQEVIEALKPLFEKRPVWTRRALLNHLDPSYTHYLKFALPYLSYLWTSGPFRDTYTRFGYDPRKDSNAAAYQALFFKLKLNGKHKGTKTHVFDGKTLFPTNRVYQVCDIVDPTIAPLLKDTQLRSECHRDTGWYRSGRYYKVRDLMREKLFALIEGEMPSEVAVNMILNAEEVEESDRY

CGAAGTGGCCGAGTGGTCTATGGCG (double strand) [A-box dsDNA (25 bp)]
binding result [1]: binds more weakly
binding result [2]: binds more weakly
binding result [3]: binds more weakly
binding result [4]: binds

Source: publication PMC3799434, “RNA polymerase III-specific general transcription factor IIIC contains a heterodimer resembling TFIIF Rap30/Rap74” (Nucleic Acids Research, 2013)
